Source: patent US9364471B2, “Compositions and methods of treating retinal disease” (ALDEYRA THERAPEUTICS, INC., priority 2005, dated 2016)
At least one compound was matched to its structure with a doubt left.

Assay: In vitro Schiff base confirmation: UV/VIS spectroscopy of condensation with RAL
Conditions: solution phase 100:1 compound:RAL

Which RAL-SBC tau does the source give for `COC(=O)c1ccccc1N` [Compound 5] here?
The RAL-SBC tau was 3,000 sec.
